Data published in patent US20100183876 (published 2010).

Test: peptide synthesis
Conditions: purification step

For (Aib^8,35)hGLP-1(7-36)NH2, the “final HPLC purity” value (HPLC (area %)) was 97.9% (area) and the step yield (according to HPLC assay) was 92%.
